As a reminder, the AC50 is the concentration giving half of the maximal activity seen. A low value points to greater potency.

Our source for the AC50 and cell number change values is PubChem BioAssay AID2685 (National Center for Advancing Translational Sciences (NCATS), 2010).

SMILES strings stand for the structures. The list shows a part of the results. The main result of the screen is listed elsewhere. These columns were measured beside it and carry no call. The list favours compounds with an active or inconclusive main result. Potencies come from curve fits of mixed quality, noted in brackets.

This experiment is described as follows: qHTS Assay for Lipid Storage Modulators in Drosophila S3 Cells.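 On cell number change: cells counted by Cell Tracker Red CMTPX staining in the red channel.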 Conditions: BODIPY lipid droplet fluorescence, 18-24 h; for cell number change: measured here: cell count max response, cells fed with added oleic acid. Summed up:
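Drosophila S3 cells loaded with oleic acid (400 uM, as added) and compounds at several concentrations; lipid droplets imaged by 488-nm laser-scanning cytometry, 500–530 nm intensity and object ratio to cell channel. Percent activity normalized to 20 uM Triacsin C.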
On the technique in general: In qHTS, concentration-response curves come from the screen itself.

The mark [1] stands for this setting: measured here: lipid fluorescence (Fed channel) AC50, cells fed with added oleic acid.
The mark [2] stands for this setting: measured here: cell number channel AC50, cells fed with added oleic acid.

Consider `CCN(CC)CCNC(=O)CNC(=S)N(CCCN1CCOCC1)Cc1cccs1`, for which the concentration at half-maximal activity (AC50) under setting [1] is 0.259 µM [falling, partial curve].
On to `CN1C(=O)N(CC(=O)NCc2ccc(Cl)cc2Cl)C(=O)C12CCCCC2`, for which the cell number change stood at 1.84%. Further, the AC50 under setting [1] is 6.51 µM [rising, single point].
Regarding `Cc1ccc(OCC(=O)c2cc(C)n(CC(F)(F)F)c2C)c([N+](=O)[O-])n1`, the cell number change was found to be 7.5%. Also, the AC50 under setting [1] is 0.92 µM [rising, full curve, poor fit].
In the case of `Cn1nc(-c2ccc(Cl)cc2)c2cc(C(=O)N3CCOCC3)sc21`, the cell number change was -6.24%. In addition, the AC50 under setting [1] was 23.1 µM [rising, single point].
For the molecule `Cc1cccc(OCC(=O)NNC(=O)Cn2c(=O)cnc3ccccc32)c1`, the cell number change was found to be 25%. Also, the AC50 under setting [1] was 23.1 µM [rising, single point].
Turning to `Nc1cc(OCC(F)(F)F)cc(OCC(F)(F)F)c1`, the cell number change was -4.92%.
As to `O=C(OCc1nc2ccccc2s1)C1CCN(C2=NS(=O)(=O)c3ccccc32)CC1`, the cell number change amounted to 1.4%. The AC50 under setting [1] is 1.16 µM [falling, full curve, poor fit].
In the case of `COc1ccc(NC(=S)/N=C(\N)Nc2nc(C)c3ccccc3n2)cc1`, the cell number change was 11.8%. Besides, the AC50 under setting [1] is 0.103 µM [rising, full curve, poor fit].
For `CCC1=Nc2ccccc2NC2=C1C(=O)CCC2`, the cell number change amounted to 21.6%. Further, under setting [1], the AC50 was 6.51 µM [rising, single point].
`C[C@@H](NC(=O)c1[nH]cnc1C(=O)Nc1ccc(Cl)cc1)c1ccccc1`: the cell number change was -17.7%. For the same molecule, under setting [2], the AC50 is 0.731 µM [falling, single point]. Moreover, under setting [1], the AC50 was 1.16 µM [rising, partial curve].
As to `COc1ccc(Cl)cc1S(=O)(=O)N1CCCC(C(=O)NCCc2ccccc2)C1` (centres undefined), the cell number change stood at 17%. Under setting [1], the AC50 is 13 µM [falling, partial curve, poor fit].
As for `CN(Cc1cccc(F)c1)C(=O)CSc1nnc(C2CC2)n1C1CC1`, the cell number change was determined as 2.09%. Moreover, the AC50 under setting [1] was 0.00517 µM [falling, full curve, poor fit].
For `COc1nc(-c2cnccn2)sc1C`, the cell number change turned out to be 6.65%.
With `COCC(C)NC(=O)c1ccc(CN2CCc3ccccc3C2)cc1` (centres undefined), the cell number change is 118%. The AC50 under setting [2] is 23.1 µM [rising, single point]. In addition, under setting [1], the AC50 was 20.6 µM [rising, single point].
As to `CSc1ccc(CN2CCc3c([nH]c4ccccc34)C2)cc1`, the cell number change was -4.53%.
`CCOC(=O)c1ccc(NC(=O)CCN2C(=O)C3CC=CCC3C2=O)cc1` (centres undefined): the cell number change came to 0.0566%. The AC50 under setting [1] was 0.206 µM [falling, full curve, poor fit].
Regarding `Cc1ccc(NC(=S)N(N)CCO)cc1`, the cell number change was -8.55%. In addition, under setting [1], the AC50 is 0.651 µM [falling, full curve].
`CCOc1ccccc1NC(=O)C(OC(=O)c1ccc(N(C)C)cc1)c1ccccc1` (centres undefined): the cell number change is -3.81%. For the same molecule, the AC50 under setting [1] was 29.1 µM [falling, single point].
`COc1ccc(C(=O)c2c[nH]c(C(=O)NCC3CCCO3)c2)cc1` (centres undefined): the cell number change is -40.7%. Moreover, the AC50 under setting [2] is 11.6 µM [falling, partial curve].
`CCOC(=O)C(Cc1cc(C(C)=O)ccc1OCC)C(=O)OCC`: the cell number change was -13.3%. The AC50 under setting [1] is 6.51 µM [rising, single point].
As for `NC(=O)C1(N2CCCCC2)CCN(C(=O)c2ccccc2)CC1`, the cell number change is -11.2%. Under setting [1], the AC50 was 1.46 µM [rising, partial curve].
On to `CCN(CC)CCSc1nnc2c3ccccc3n(CCc3ccccc3)c2n1`, for which the cell number change is 34%. Moreover, under setting [2], the concentration at half-maximal activity (AC50) is 1.64 µM [rising, full curve, poor fit].
Turning to `C/C(=N\Nc1nc(-c2cc(C)ccc2C)cs1)c1cc2ccccc2oc1=O`, the cell number change was determined as 6.51%. Further, under setting [1], the AC50 was 0.291 µM [rising, partial curve].
For the molecule `COc1cc(C(=S)N2CCC(C(N)=O)CC2)ccc1O`, the cell number change turned out to be 58.7%. Also, the AC50 under setting [2] is 16.4 µM [rising, single point].
For `COc1ccc(OCCCC(=O)N(CCC2=CCCCC2)c2c(N)n(Cc3ccccc3)c(=O)[nH]c2=O)cc1`, the cell number change is -2.53%. In addition, the AC50 under setting [1] is 20.6 µM [falling, single point].
Turning to `Cc1ccc(Nc2nc(N)nc(CSc3nnc(-c4ccncc4)o3)n2)cc1`, the AC50 was 5.8 µM [rising, single point] under setting [2] and 6.51 µM [rising, partial curve] under setting [1].
`Cc1ccc(S(=O)(=O)Nc2ccc3c(c2)c2c(n3S(=O)(=O)c3ccc(C)cc3)CCCC2=O)cc1`: the cell number change amounted to 9.13%. The concentration at half-maximal activity (AC50) under setting [1] is 0.0058 µM [falling, full curve, poor fit].
Turning to `CCOc1ccccc1OCCCOc1ccc([N+](=O)[O-])cc1Cl`, the cell number change worked out at 44.5%. Also, the AC50 under setting [2] is 6.51 µM [rising, full curve, poor fit]. Under setting [1], the concentration at half-maximal activity (AC50) is 4.11 µM [rising, partial curve].
On to `CC(C)C(CCN1C(=O)CCC1=O)C1CCOC(C)(C)C1` (centres undefined), for which the cell number change came to 12.1%.
Turning to `CCN(CC)S(=O)(=O)c1cccc(C(=O)OCC(=O)NC(C)c2ccccc2)c1` (centres undefined), the cell number change is -4.6%. Also, the AC50 under setting [1] was 0.651 µM [rising, single point].
Consider `NNC(=O)c1csc(-c2ccccc2)n1`, for which the cell number change amounted to 0.703%. The AC50 under setting [2] was 6.51 µM [falling, single point].
Take `CC1CCCCN1C(=O)CSc1nc2ccccc2n1CC(=O)N1CCc2ccccc21` (centres undefined): the cell number change was found to be 119%. Moreover, the AC50 under setting [2] is 6.51 µM [rising, partial curve]. Besides, the AC50 under setting [1] was 1.3 µM [rising, full curve].
On to `CN(Cc1nc2ccccc2n1C)C(=O)c1cccs1`, for which the cell number change was -34.6%. The AC50 under setting [1] was 2.06 µM [falling, partial curve].
For the molecule `CCCC(=O)Nc1cccn(Cc2ccccc2Br)c1=O`, under setting [2], the AC50 is 6.51 µM [rising, single point].
As to `CC(C)CC(NC(=O)C1CCC(C)CC1)C(=O)Nc1ccc2c(c1)OCCO2` (centres undefined), the cell number change was -12.5%. The AC50 under setting [1] was 6.51 µM [rising, single point].
For `CN1C(=S)SC(N(O)C(=O)Nc2cccc3ccccc23)C1(C)C` (centres undefined), the cell number change was -1.26%.
Regarding `Cc1ccc(C(=O)NCC(=O)OC(C)C(=O)Nc2ccc(N(C)C)cc2)cc1C` (centres undefined), the cell number change is -19.7%. Further, the AC50 under setting [2] is 6.51 µM [falling, single point].
Consider `O=C1c2ccccc2C(=O)N1CCCCN(C(=O)c1ccc([N+](=O)[O-])cc1)c1ccc(Cl)cc1`, for which the cell number change was -4.9%. The AC50 under setting [1] was 0.461 µM [rising, single point].
On to `C=CCn1c(=O)c2ccccc2n2c(SCC(=O)NC)nnc12`, for which the AC50 under setting [2] is 6.51 µM [rising, single point].
On to `CCOc1ccc(-c2cc(C(=O)OC)[nH]n2)cc1`, for which the cell number change amounted to 0.24%. Also, under setting [1], the AC50 is 0.082 µM [rising, full curve, poor fit].
Turning to `N#Cc1c(N)n(-c2ccccc2N)c2nc3ccccc3nc12`, the cell number change came to 0.679%. The AC50 under setting [1] was 3.26 µM [falling, single point].
As to `COC(=O)c1cc(S(=O)(=O)N2CCCCC2C)c[nH]1` (centres undefined), the cell number change came out at 2.14%. The half-maximal activity concentration (AC50) under setting [1] was 0.82 µM [falling, partial curve, poor fit].
Take `O=C(N/N=C/c1cccc(OC(=O)c2cccc(Br)c2)c1)c1cccnc1`: the cell number change was -2.31%.
Consider `Cc1ccc(Cc2c(C)nc3nc(SCC(=O)NCCCN4CCOCC4)nn3c2C)cc1`, for which the cell number change turned out to be 84.9%. The AC50 under setting [2] was 20.6 µM [rising, single point].
Consider `COc1ccccc1CC(=O)Nc1ccc(S(=O)(=O)N2CCOCC2)cc1`, for which the cell number change is -2.1%.
Regarding `Cc1cccc(NC(=O)CSCC(=O)N(C)CCOc2ccc(Cl)cc2)c1`, the cell number change was -12.8%. The AC50 under setting [2] was 0.116 µM [falling, full curve, poor fit].
As for `O=C(Nc1nc2cc3c(cc2s1)OCO3)c1cccc(N2C(=O)CCC2=O)c1`, the AC50 under setting [1] was 32.6 µM [rising, single point].
In the case of `CCCN(CC(=O)Nc1ccccc1C)C(=O)C1CCN(C(=O)Nc2ccccc2)CC1`, the cell number change is -9.32%. Moreover, under setting [1], the AC50 was 29.1 µM [falling, single point].
As for `COc1cccc(C(=O)O[C@@H]2[C@H](Cc3ccccc3)NS(=O)(=O)[C@H]3C[C@@H]4C=C[C@]23O4)c1`, the cell number change amounted to 8.04%. For the same molecule, the AC50 under setting [1] is 6.51 µM [rising, single point].
`COC(=O)c1cccc(C23CC4(C2)[C@H](CN(C)[C@@H]4c2ccccc2)C3c2ccc(C(F)(F)F)cc2)c1` (some centres undefined): the cell number change is -30.3%. For the same molecule, the AC50 under setting [2] was 8.2 µM [falling, partial curve, poor fit]. The AC50 under setting [1] is 5.17 µM [falling, full curve].
As for `CC(OC(=O)CCc1nc2ccccc2c(=O)[nH]1)C(=O)c1ccc(C(C)(C)C)cc1` (centres undefined), the cell number change turned out to be 3.26%. In addition, the AC50 under setting [2] was 0.116 µM [rising, full curve, poor fit]. Moreover, under setting [1], the AC50 was 5.8 µM [falling, full curve].
As for `Cc1cccc(C)c1NC(=O)c1cc2c(=O)c3ccccc3oc2nc1C(F)(F)F`, the cell number change is -47.5%. For the same molecule, the AC50 under setting [2] was 29.1 µM [falling, single point]. In addition, under setting [1], the AC50 is 20.6 µM [falling, partial curve, poor fit].
`Cc1nn(-c2ccccc2)c(Cl)c1C(=O)NCC(C)C`: under setting [1], the AC50 was 6.51 µM [rising, single point].
In the case of `CSc1ccccc1C(=O)OCC(=O)N1CCN(C(C)=O)CC1`, the cell number change was found to be 23%. For the same molecule, the AC50 under setting [1] was 2.31 µM [rising, single point].
Consider `O=C(Nc1cccc(N=Cc2cc(Cl)cc(Br)c2O)c1)c1ccco1`, for which the cell number change was -24.3%. Also, under setting [1], the AC50 was 29.1 µM [falling, single point].
Regarding `Cc1cccc(CSc2nc3c(c(-c4cccs4)c2C#N)CN(C)CC3)c1`, the cell number change came out at 15.8%. Further, the AC50 under setting [1] is 29.1 µM [rising, single point].
Turning to `COc1ccc(CCN(C(=O)COc2ccccc2)c2nc(-c3ccccc3)cs2)cc1OC`, the cell number change is -24.1%. In addition, the AC50 under setting [1] was 7.31 µM [falling, partial curve].
As for `Cc1ccc(NC(=O)c2cccs2)cc1NC(=O)c1ccco1`, the cell number change was -3.32%. Besides, the concentration at half-maximal activity (AC50) under setting [1] was 0.206 µM [rising, full curve, poor fit].
As for `CC(C)c1nc(SCC(=O)N2c3ccccc3CC2C)c2ccccc2n1` (centres undefined), the AC50 under setting [2] was 0.517 µM [rising, full curve] and the AC50 under setting [1] is 0.82 µM [rising, full curve].
`CCCCCOC(=O)C(C)c1c(C)[nH]c(=S)[nH]c1=O` (centres undefined): the cell number change was 2.48%.
